Assay results published in patent publication US20240343736A1, “KRAS INHIBITORS” (ELI LILLY AND COMPANY, priority 2023, published 2024).
Some results were stated once for a whole list of compounds, not compound by compound.

What was measured:
Assay type in all cases: cell-based
[1] = molecular target: T1, KRAS G12V (Homo sapiens, UniProt P01116, G12V); test: Cellular Phospho-ERK AlphaLISA assay, SW620 cells (KRAS G12V); settings: for selective inhibition preference for KRas G12V mutant over HRAS and NRAS: SW620 vs MEF-NRAS and MEF-HRAS Phospho-ERK AlphaLISA assays; for IC50: cells expressing KRAS G12V, 2 h incubation, read-out: relative IC50, reduction of phosphorylated ERK-1/2
T1 construct: endogenous in cells; host or cells: SW620 (human colorectal cancer)

[2] = molecular target: T2, KRAS WT (Homo sapiens, UniProt P01116); test: Cellular Phospho-ERK AlphaLISA assay, cells expressing KRAS WT (MKN45, WT KRAS amplification); settings: 2 h incubation, read-out: relative IC50, reduction of phosphorylated ERK-1/2
T2 construct: or amplification of the KRAS gene; endogenous in cells; host or cells: MKN45 (human gastric cancer, WT KRAS amplification)

[3] = molecular target: T3, KRAS G12D (Homo sapiens, UniProt P01116, G12D); test: Cellular Phospho-ERK AlphaLISA assay, HPAC cells (KRAS G12D); settings: cells expressing KRAS G12D; 2 h incubation; read-out: relative IC50, reduction of phosphorylated ERK-1/2
T3 construct: endogenous in cells; host or cells: HPAC (human pancreatic cancer)

CN1CCC[C@@H](Nc2nc(N3CC[C@H](N(C)C)C3)nc3c(F)c(-c4c(F)ccc5sc(N)c(C#N)c45)c4c(c23)COC4)C1=O (single isomer, unassigned; atropisomer 1) [Example 4C]
selective inhibition preference for KRas G12V mutant over HRAS and NRAS [1]: greater than 10 fold
IC50 [2]: < 500 nM

Cc1nsc(CNc2nc(OC[C@@]34CCCN3C[C@H](F)C4)nc3c(Cl)c(-c4ccc(F)c5sc(N)c(C#N)c45)c4c(c23)COC4)n1 (single isomer, unassigned; atropisomer 1) [Example 12B]
IC50 [2]: < 500 nM
IC50 [3]: < 500 nM

N#Cc1c(N)sc2c(F)ccc(-c3c4c(c5c(N[C@@H]6CCCNC6=O)nc(OC[C@@]67CCCN6C[C@H](F)C7)nc5c3Cl)COC4)c12 (single isomer, unassigned; atropisomer 1) [Example 18A]
IC50 [3]: < 500 nM

N#Cc1c(N)sc2c(F)ccc(-c3c4c(c5c(N[C@H]6CCNC6=O)nc(OC[C@@]67CCCN6C[C@H](F)C7)nc5c3Cl)COC4)c12 (single isomer, unassigned; atropisomer 1) [Example 20A]
IC50 [3]: < 500 nM

Cc1cc(CNc2nc(OC[C@@]34CCCN3C[C@H](F)C4)nc3c(Cl)c(-c4ccc(F)c5sc(N)c(C#N)c45)c4c(c23)COC4)on1 (single isomer, unassigned; atropisomer 1) [Example 20B]
IC50 [2]: < 500 nM

CN1CC[C@@H](Nc2nc(OCC3(CO)CCCN3C)nc3c(Cl)c(-c4ccc(F)c5sc(N)c(C#N)c45)c4c(c23)COC4)C1=O (single isomer, unassigned; atropisomer 1) [Example 22B]
IC50 [2]: < 500 nM

CN1CC[C@@H](Nc2nc(OCC3(N(C)C)COC3)nc3c(Cl)c(-c4ccc(F)c5sc(N)c(C#N)c45)c4c(c23)COC4)C1=O (single isomer, unassigned; atropisomer 1) [Example 24B]
IC50 [2]: < 500 nM
IC50 [3]: < 500 nM

CN1CCO[C@@H](COc2nc(N[C@@H]3CCCN(C)C3=O)c3c4c(c(-c5ccc(F)c6sc(N)c(C#N)c56)c(Cl)c3n2)COC4)C1 (single isomer, unassigned; atropisomer 1) [Example 32A]
IC50 [2]: < 500 nM
IC50 [3]: < 500 nM

CN1CCC[C@@H](Nc2nc(N3CC(N(C)C)C3)nc3c(Cl)c(-c4ccc(F)c5sc(N)c(C#N)c45)c4c(c23)COC4)C1=O (single isomer, unassigned; atropisomer 1) [Example 35A]
IC50 [2]: < 500 nM
IC50 [3]: < 500 nM

Cc1nc(CNc2nc(O[C@@H](C)[C@@H]3CCCN3C)nc3c(Cl)c(-c4ccc(F)c5sc(N)c(C#N)c45)c4c(c23)COC4)no1 (single isomer, unassigned; atropisomer 1) [Example 36C]
IC50 [1]: < 500 nM
IC50 [3]: < 500 nM

CN(C)CC1(COc2nc(N[C@@H]3CCCN(C)C3=O)c3c4c(c(-c5ccc(F)c6sc(N)c(C#N)c56)c(Cl)c3n2)COC4)CC1 (single isomer, unassigned; atropisomer 1) [Example 37A]
IC50 [2]: < 500 nM
IC50 [3]: < 500 nM

Cc1nc(CNc2nc(N3CC[C@H](N(C)C)C3)nc3c(Cl)c(-c4ccc(F)c5sc(N)c(C#N)c45)c4c(c23)COC4)no1 (single isomer, unassigned; atropisomer 1) [Example 39A]
IC50 [2]: < 500 nM
IC50 [3]: < 500 nM

Cc1nc(CNc2nc(N3CC[C@H](N(C)C)C3)nc3c(F)c(-c4ncc(F)c5sc(N)c(C#N)c45)c4c(c23)COC4)no1 [Example 2B, 2-Amino-4-(3-((S)-3-(dimethylamino)pyrrolidin-1-yl)-5-fluoro-1-(((5-methyl-1,2,4-oxadiazol-3-yl)methyl)amino)-7,9-dihydrofuro[3,4-f]quinazolin-6-yl)-7-fluorothieno[3,2-c]pyridine-3-carbonitrile]
IC50 [1]: < 500 nM

Cc1nc(COc2nc(N3CC[C@H](N(C)C)C3)nc3c(F)c(-c4c(F)ccc5sc(N)c(C#N)c45)c4c(c23)COC4)no1 [Example 2C, 2-Amino-4-(3-((S)-3-(dimethylamino)pyrrolidin-1-yl)-5-fluoro-1-((5-methyl-1,2,4-oxadiazol-3-yl)methoxy)-7,9-dihydrofuro[3,4-f]quinazolin-6-yl)-5-fluorobenzo[b]thiophene-3-carbonitrile]
selective inhibition preference for KRas G12V mutant over HRAS and NRAS [1]: greater than 10 fold

N#Cc1c(N)sc2c(F)cnc(-c3c4c(c5c(NCc6cccnn6)nc(OC[C@@]67CCCN6C[C@H](F)C7)nc5c3F)COC4)c12 [Example 3B, 2-Amino-7-fluoro-4-(5-fluoro-3-(((2R,7aS)-2-fluorotetrahydro-1H-pyrrolizin-7a(5H)-yl)methoxy)-1-((pyridazin-3-ylmethyl)amino)-7,9-dihydrofuro[3,4-f]quinazolin-6-yl)thieno[3,2-c]pyridine-3-carbonitrile]
IC50 [2]: < 500 nM

Cc1nc(CNc2nc(N3CC(N(C)C)C3)nc3c(F)c(-c4ncc(F)c5sc(N)c(C#N)c45)c4c(c23)COC4)no1 [Example 4B, 2-Amino-4-(3-(3-(dimethylamino)azetidin-1-yl)-5-fluoro-1-(((5-methyl-1,2,4-oxadiazol-3-yl)methyl)amino)-7,9-dihydrofuro[3,4-f]quinazolin-6-yl)-7-fluorothieno[3,2-c]pyridine-3-carbonitrile]
IC50 [1]: < 500 nM
IC50 [2]: < 500 nM

CN1CC[C@@H](Nc2nc(N3CC(N(C)C)C3)nc3c(F)c(-c4ncc(F)c5sc(N)c(C#N)c45)c4c(c23)COC4)C1=O [Example 5B, 2-Amino-4-(3-(3-(dimethylamino)azetidin-1-yl)-5-fluoro-1-(((R)-1-methyl-2-oxopyrrolidin-3-yl)amino)-7,9-dihydrofuro[3,4-f]quinazolin-6-yl)-7-fluorothieno[3,2-c]pyridine-3-carbonitrile]
IC50 [1]: < 500 nM

CN(C)[C@H]1CCN(c2nc(NCc3cccnn3)c3c4c(c(-c5ncc(F)c6sc(N)c(C#N)c56)c(F)c3n2)COC4)C1 [Example 8B, 2-Amino-4-(3-((S)-3-(dimethylamino)pyrrolidin-1-yl)-5-fluoro-1-((pyridazin-3-ylmethyl)amino)-7,9-dihydrofuro[3,4-f]quinazolin-6-yl)-7-fluorothieno[3,2-c]pyridine-3-carbonitrile]
selective inhibition preference for KRas G12V mutant over HRAS and NRAS [1]: greater than 10 fold

CN(C)C1(C)CN(c2nc(NCc3cccnn3)c3c4c(c(-c5ncc(F)c6sc(N)c(C#N)c56)c(F)c3n2)COC4)C1 [Example 10B, 2-Amino-4-(3-(3-(dimethylamino)-3-methylazetidin-1-yl)-5-fluoro-1-((pyridazin-3-ylmethyl)amino)-7,9-dihydrofuro[3,4-f]quinazolin-6-yl)-7-fluorothieno[3,2-c]pyridine-3-carbonitrile]
selective inhibition preference for KRas G12V mutant over HRAS and NRAS [1]: greater than 10 fold

CN(C)[C@H]1CCN(c2nc(NCc3noc(C(N)=O)n3)c3c4c(c(-c5ccc(F)c6sc(N)c(C#N)c56)c(Cl)c3n2)COC4)C1 [Example 16B, 3-(((6-(2-Amino-3-cyano-7-fluorobenzo[b]thiophen-4-yl)-5-chloro-3-((S)-3-(dimethylamino)pyrrolidin-1-yl)-7,9-dihydrofuro[3,4-f]quinazolin-1-yl)amino)methyl)-1,2,4-oxadiazole-5-carboxamide]
IC50 [2]: < 500 nM

N#Cc1c(N)sc2c(F)ccc(-c3c4c(c5c(NCc6cn[nH]c6)nc(OC[C@@]67CCCN6C[C@H](F)C7)nc5c3Cl)COC4)c12 [Example 17A, 4-(1-(((1H-Pyrazol-4-yl)methyl)amino)-5-chloro-3-(((2R,7aS)-2-fluorotetrahydro-1H-pyrrolizin-7a(5H)-yl)methoxy)-7,9-dihydrofuro[3,4-f]quinazolin-6-yl)-2-amino-7-fluorobenzo[b]thiophene-3-carbonitrile]
IC50 [3]: < 500 nM

Cc1cc(CNc2nc(OC[C@@]34CCCN3C[C@H](F)C4)nc3c(Cl)c(-c4ccc(F)c5sc(N)c(C#N)c45)c4c(c23)COC4)on1 [Example 19B, 2-Amino-4-(5-chloro-3-(((2R,7aS)-2-fluorotetrahydro-1H-pyrrolizin-7a(5H)-yl)methoxy)-1-(((3-methylisoxazol-5-yl)methyl)amino)-7,9-dihydrofuro[3,4-f]quinazolin-6-yl)-7-fluorobenzo[b]thiophene-3-carbonitrile]
IC50 [2]: < 500 nM

CN1CCO[C@@H](COc2nc(NCc3noc4c3CCCC4)c3c4c(c(-c5ccc(F)c6sc(N)c(C#N)c56)c(Cl)c3n2)COC4)C1 [Example 27, 2-Amino-4-(5-chloro-3-(((R)-4-methylmorpholin-2-yl)methoxy)-1-(((4,5,6,7-tetrahydrobenzo[d]isoxazol-3-yl)methyl)amino)-7,9-dihydrofuro[3,4-f]quinazolin-6-yl)-7-fluorobenzo[b]thiophene-3-carbonitrile]
IC50 [1]: < 500 nM
IC50 [2]: < 500 nM

CN(C)CC1(COc2nc(N[C@@H]3CCCN(C)C3=O)c3c4c(c(-c5ncc(F)c6sc(N)c(C#N)c56)c(F)c3n2)COC4)CC1 [Example 27B, 2-Amino-4-(3-((1-((dimethylamino)methyl)cyclopropyl)methoxy)-5-fluoro-1-(((R)-1-methyl-2-oxopiperidin-3-yl)amino)-7,9-dihydrofuro[3,4-f]quinazolin-6-yl)-7-fluorothieno[3,2-c]pyridine-3-carbonitrile]
selective inhibition preference for KRas G12V mutant over HRAS and NRAS [1]: greater than 10 fold
IC50 [1]: < 500 nM

C[C@H]1[C@@H](N(C)C)CCN1c1nc(N[C@@H]2CCN(C)C2=O)c2c3c(c(-c4ncc(F)c5sc(N)c(C#N)c45)c(F)c2n1)COC3 [Example 44C, 2-Amino-4-(3-((2S,3S)-3-(dimethylamino)-2-methylpyrrolidin-1-yl)-5-fluoro-1-(((R)-1-methyl-2-oxopyrrolidin-3-yl)amino)-7,9-dihydrofuro[3,4-f]quinazolin-6-yl)-7-fluorothieno[3,2-c]pyridine-3-carbonitrile]
IC50 [3]: < 500 nM
